This assay has as its system CD2F1 mice, L1210 leukemia ip, survival T/C. In words: NCI In Vivo Anticancer Drug Screen. Data for tumor model L1210 Leukemia (intraperitoneal) in CD2F1 (CDF1) mice. Particulars: T/C endpoint: mean survival time, higher T/C = longer survival. The procedure, abridged:
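Mice carrying a transplanted tumor received test compound or vehicle alone. The value is the measurement in the treated group divided by that in the vehicle-treated control group.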

Where [1] appears, read: dose: 400.0 mg/kg/injection, schedule: Q01DX001 (ip), vehicle: saline.
[2] abbreviates: dose: 200.0 mg/kg/injection, schedule: Q04DX002 (ip), vehicle: saline with Tween-80.
The mark [3] stands for this setting: dose: 400.0 mg/kg/injection, schedule: Q04DX002 (ip), vehicle: saline with Tween-80.
The mark [4] stands for this setting: dose: 200.0 mg/kg/injection, schedule: Q04DX003 (ip), vehicle: saline with Tween-80.
Setting [5] is: dose: 400.0 mg/kg/injection, schedule: Q04DX003 (ip), vehicle: saline with Tween-80.

The values below come from PubChem BioAssay AID256 (DTP/NCI, 2004).

The list does not hold the whole screen: it gathers tests that were run many times, whatever their T/C, doses with no T/C, and many T/C values between a quarter and a half above the control. Other doses and runs of a compound stand elsewhere. T/C is the treated group as % of the vehicle group. Some doses have a count of surviving animals in place of a T/C: the source files T/C as zero there, which appears to mark a toxic dose or a test without result, not a measured value. Some doses without a T/C left all or most animals alive at the check, yet need not have been tolerated: the source hardly ever lists a survival T/C far under the control, and the zero likely stands for such cases as well. Survivors were counted at the toxicity check, usually on the fifth day, unless a day is given; later deaths do not show. Schedule codes are those of the source, read here as Q, the interval in days (D) or hours (H), X, the number of doses. Where survival is the endpoint, this PubChem deposit counts one and a half times the control or more as active, and values a quarter to a half above the control carry no call in these data; other NCI protocols may use other cut-offs.

`COC12C(COC(N)=O)C3=C(C(=O)C(C)=C(N4CC4)C3=O)N1CC1NC12` (stereo not given): the T/C reads like this: (dose: 0.22 mg/kg/injection, schedule: Q01DX007 (ip), vehicle: acetone) 141 % of control; (dose: 0.33 mg/kg/injection, schedule: Q01DX007 (ip), vehicle: acetone) 146 % of control; (dose: 0.66 mg/kg/injection, schedule: Q01DX001 (ip), vehicle: carboxymethylcellulose (CMC)) 148 % of control. In addition, the survivor count by setting is: (dose: 0.5 mg/kg/injection, schedule: Q01DX001 (ip), vehicle: acetone) 4 of 4; (dose: 0.66 mg/kg/injection, schedule: Q01DX001 (ip), vehicle: acetone) 0 of 4; (dose: 1.0 mg/kg/injection, schedule: Q01DX001 (ip), vehicle: acetone) 2 of 4; (dose: 1.5 mg/kg/injection, schedule: Q01DX001 (ip), vehicle: acetone) 0 of 4.

With `OCC1OC([Se])C(O)C(O)C1O.[CH3][Sb][CH3]` (stereo not given), the survivor count is 0 of 3 (dose: 100.0 mg/kg/injection, schedule: Q01DX009 (ip), vehicle: Klucel (hydroxypropylcellulose) (HPC)) and 0 of 3 (dose: 200.0 mg/kg/injection, schedule: Q01DX009 (ip), vehicle: Klucel (hydroxypropylcellulose) (HPC)).

With `CCS(=O)(=O)OCCCNCCCOS(=O)(=O)CC`, the T/C (dose: 50.0 mg/kg/injection, schedule: Q01DX001 (ip), vehicle: saline) was 129 % of control.

In the case of `CN(C)CCc1ccc(O)cc1`, the survivor count is 2 of 6 (dose: 200.0 mg/kg/injection, schedule: Q01DX001 (ip), vehicle: saline) and 0 of 6 under setting [1].

With `Nc1nc(Cl)nc2c1ncn2C1OC(CO)C(O)C1O` (stereo not given), the survivor count runs as follows: (dose: 100.0 mg/kg/injection, schedule: Q04DX002 (ip), vehicle: saline with Tween-80) 0 of 3; (dose: 200.0 mg/kg/injection, schedule: Q01DX009 (ip), vehicle: saline) 2 of 6; under setting [2], 0 of 3; (dose: 400.0 mg/kg/injection, schedule: Q01DX009 (ip), vehicle: saline) 0 of 6; under setting [3], 0 of 3.

For the molecule `CC(=O)CC(C)(C)N`, the survivor count is given as 5 of 6 under setting [4] and 0 of 6 under setting [5].

On to `CCOC(=O)NCCBr`, for which the survivor count (dose: 300.0 mg/kg/injection, schedule: Q01DX007 (ip), vehicle: saline) is recorded as 0 of 4 and the survivor count (dose: 600.0 mg/kg/injection, schedule: Q01DX007 (ip), vehicle: saline) is 0 of 4.

As for `CCOC(C[Se][Se]CC(OCC)OCC)OCC`, the survivor count is 0 of 6 (dose: 12.5 mg/kg/injection, schedule: Q01DX009 (ip), vehicle: saline); 0 of 6 (dose: 25.0 mg/kg/injection, schedule: Q04DX003 (ip), vehicle: saline with Tween-80); 0 of 6 (dose: 100.0 mg/kg/injection, schedule: Q04DX003 (ip), vehicle: saline with Tween-80); 0 of 6 under setting [4]; 0 of 6 under setting [5].

With `O=NN(CCOS(=O)(=O)c1ccc(Br)cc1)C(=O)NC1CCCCC1`, the survivor count (dose: 400.0 mg/kg/injection, schedule: Q01DX001 (ip), vehicle: other) is 0 of 6.

For `O=C(O)c1ccc(Cl)cc1Nc1ccc(O)cc1`, the survivor count was 0 of 3 under setting [2] and 0 of 3 under setting [3].

As for `CCCCCCC#CC(=O)OC`, the survivor count (dose: 400.0 mg/kg/injection, schedule: Q01DX009 (ip), vehicle: saline with Tween-80) is on record as 2 of 6.

With `Oc1ccccc1Br`, under setting [1], the survivor count is 0 of 3.

As for `COC(=O)/C(=C\c1ccccc1)CN1CCCCC1`, the survivor count (dose: 100.0 mg/kg/injection, schedule: Q01DX001 (ip), vehicle: saline with Tween-80) is on record as 0 of 3; the survivor count (dose: 200.0 mg/kg/injection, schedule: Q01DX001 (ip), vehicle: saline with Tween-80) is reported as 0 of 3; the survivor count (dose: 400.0 mg/kg/injection, schedule: Q01DX001 (ip), vehicle: saline with Tween-80) is on record as 0 of 3.

`CC(Cc1ccc2c(c1)OCO2)NCC(O)c1ccc(O)c(O)c1` (stereo not given): under setting [1], the survivor count is on record as 0 of 6.

`CC1C=CC(=O)O1` (stereo not given): under setting [2], the survivor count is on record as 1 of 3.

Turning to `Clc1ccc(-c2nnn3ccccc23)cc1`, the survivor count runs as follows: (dose: 50.0 mg/kg/injection, schedule: Q01DX001 (ip), vehicle: saline with Tween-80) 3 of 3; under setting [1], 3 of 3.

As to `O=CNc1cc2ccccc2c2ccc3ccccc3c12`, under setting [5], the survivor count is reported as 5 of 6.

For the molecule `O=C(O)CCSc1ccc2c(c1)CCCC2`, the survivor count (dose: 400.0 mg/kg/injection, schedule: Q01DX009 (ip), vehicle: Klucel (hydroxypropylcellulose) (HPC)) is on record as 3 of 6.
